Drawing on patent US20230002320A1, “COMPOUNDS AND COMPOSITIONS FOR TREATING CONDITIONS ASSOCIATED WITH STING ACTIVITY” (IFM Due, Inc., priority 2019, published 2023), this text covers EC50 for one molecule.

By UniProt entry, the sequences of proteins in these tests, tags left out.
UniProt Q86WV6, whole entry R71H/G230A/H232R/R293Q: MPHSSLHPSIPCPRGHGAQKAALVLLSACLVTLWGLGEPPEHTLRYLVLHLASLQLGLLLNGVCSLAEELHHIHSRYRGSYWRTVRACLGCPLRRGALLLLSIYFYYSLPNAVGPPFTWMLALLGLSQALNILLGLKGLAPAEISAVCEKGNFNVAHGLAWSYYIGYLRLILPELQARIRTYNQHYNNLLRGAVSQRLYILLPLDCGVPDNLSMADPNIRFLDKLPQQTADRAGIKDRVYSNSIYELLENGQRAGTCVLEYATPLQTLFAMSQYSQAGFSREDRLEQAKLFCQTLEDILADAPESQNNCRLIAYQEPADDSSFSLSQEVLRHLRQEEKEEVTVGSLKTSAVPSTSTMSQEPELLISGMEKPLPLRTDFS

Structures were worked out from names or drawings and are uncertain.

The assay addresses hSTING (Homo sapiens, UniProt Q86WV6). Nature of the assay: STING reporter assay (luciferase) in THP1-Dual KO-IFNAR2 cells activated with 2'3' cGAMP. The class given is cell-based. The conditions noted are these: read-out: hSTING: EC50, 15 μM 2'3' cGAMP, 24 h. The protocol: STING pathway activation by the compounds described herein was measured using THP1-Dual™ cells (KO-IFNAR2).
THP1-Dual™ KO-IFNAR2 Cells (obtained from invivogen) were maintained in RPMI, 10% FCS, 5 ml P/S, 2 mM L-glut, 10 mM Hepes, and 1 mM sodium pyruvate. Compounds were spotted in empty 384 well tissue culture plates (Greiner 781182) by Echo for a final concentration of 0.0017-100 μM. Cells were plated into the TC plates at 40 μL per well, 2×10E6 cells/mL. For activation with STING ligand, 2′3′ cGAMP (MW 718.38, obtained from Invivogen), was prepared in Optimem media. […]
2 mL of solution A and 2 ml Solution B was mixed and incubated for 20 min at room temperature (RT). […] Luciferase reporter activity was then measured. EC50 values were calculated by using standard methods known in the art.
Luciferase reporter assay: 10 μL of supernatant from the assay was transferred to white 384-plate with flat bottom and squared wells. one pouch of QUANTI-Luc™ Plus was dissolved in 25 mL of water. […] Luminescence was measured on a Platereader (e.g., Spectramax I3X (Molecular Devices GF3637001)).
Luciferase reporter activity was then measured. EC50 values were calculated by using standard methods known in the art. […]

Regarding `CC(C)(O)Cn1cc(-c2ccc3[nH]cc(NC(=O)Nc4ccc(C(F)(F)F)cc4)c3c2)cn1` [Compound 297, 1-(5-(1-(2-hydroxy-2-methylpropyl)-1H-pyrazol-4-yl)-1H-indol-3-yl)-3-(4-(trifluoromethyl)phenyl)urea], the 50% effective concentration (EC50) lay in the range of 200 to 1000 nM.
